Results as given in EP4670717A1, “PYRROLIDINE-FUSED MYRTANOL DERIVATIVES AS INHIBITORS AND/OR DEGRADERS OF IDO1 UND USE THEREOF” (Max-Planck-Gesellschaft zur Förderung der Wissenschaften …, priority 2024, dated 2025).
For at least one compound, name, drawing or mass did not settle the structure.

Protein sequences, listed by entry. Tags and fused reporters are not part of them.
UniProt P14902, whole entry: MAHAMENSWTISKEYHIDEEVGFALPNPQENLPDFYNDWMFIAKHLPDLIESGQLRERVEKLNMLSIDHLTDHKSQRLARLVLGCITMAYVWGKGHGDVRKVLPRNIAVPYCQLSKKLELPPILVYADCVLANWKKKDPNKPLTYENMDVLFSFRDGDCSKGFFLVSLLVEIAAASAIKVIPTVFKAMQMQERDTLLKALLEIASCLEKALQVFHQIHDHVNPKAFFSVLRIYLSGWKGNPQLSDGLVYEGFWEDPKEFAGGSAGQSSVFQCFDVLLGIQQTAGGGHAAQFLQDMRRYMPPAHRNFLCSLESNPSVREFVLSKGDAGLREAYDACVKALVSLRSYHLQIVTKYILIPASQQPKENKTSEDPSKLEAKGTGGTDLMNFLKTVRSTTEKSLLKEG

Molecular target: T1, IDO1 (Homo sapiens, UniProt P14902)
T1 construct: BxPC3 cells were seeded in phenol red-free RPMI 1640 medium; endogenous in cells; host or cells: BxPC3 cells stimulated with IFN-γ (50 ng/mL)
Experiment: Kyn assay in BxPC-3 cells (Kyn levels after IFN-γ and Trp);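 further: kyn levels expressed relative to DMSO-treated control cells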
Format: cell-based
Details: result in words

In the case of `C#Cc1ccc(NC(=O)OC[C@]23CN(S(=O)(=O)c4ccc(C(C)(C)C)cc4CC)C[C@H]2C[C@H]2C[C@@H]3C2(C)C)cc1` [compound 72, ((3aS,4R,6R,7aS)-2-((4-(tert-butyl)-2-ethylphenyl)sulfonyl)-5,5-dimethylocta-hydro-3aH-4,6-methanoisoindol-3a-yl)methyl(4-ethynylphenyl) carbamate], the “activity in the cell-based kynurenine assay” value is reported as “low nanomolar range”.
